# Results from the supplement of paper PMC8728848.
# Some of the results follow.
# B1: Erv41-EDTA (Saccharomyces cerevisiae), Q04651 (protein)
# chain: MKFLVNVALVFMVVYISYIYAAAPEHHHHHHDYDIPTTENLYFQGAMGYIDQQYVVDSQVRDTVQINMDIYVNTKCDWLQINVRDQTMDRKLVLEELQLEEMPFFIPYDTKVNDINEIITPELDEILGEAIPAEFREKLDTRSFFDESDPNKAHLPEFNGCHVFGSIPVNRVSGELQITAKSLGYVASRKAPLEELKFNHVINEFSFGDFYPYIDNPLDNTAQFNQDEPLTTYVYYTSVVPTLFKKLGAEVDTNQYSVNDYRYLYKDVAAKGDKMPGIFFKYNFEPLSIVVSDVRL
# Key:
# Assay in all cases: glycan array binding signal (z-score within array); higher = stronger binding
# Details in all cases: glycan notation: IUPAC condensed, linker removed
# [1] = biological target: Fuc(a1-2)Gal(b1-4)GlcNAc(b1-3)Gal(b1-4)GlcNAc(b1-2)Man(a1-3)[Fuc(a1-2)Gal(b1-4)GlcNAc(b1-3)Gal(b1-4)GlcNAc(b1-2)Man(a1-6)]Man(b1-4)GlcNAc(b1-4)GlcNAc
# Summary of the method: (§1)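 Columns mapping to the same glycan were averaged after glycan names were converted to IUPAC-condensed notation. The data come from 3228 arrays in the Consortium for Functional Glycomics database, limited to those with an available protein sequence. Binding is reported as a within-array Z-score averaged across arrays of one protein sequence and across linkers.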
# [2] = biological target: Fuc(a1-2)Gal(b1-4)GlcNAc(b1-3)Gal(b1-4)GlcNAc(b1-3)Gal(b1-4)GlcNAc
# Summary of the method: as §1
# [3] = biological target: Fuc(a1-2)Gal(b1-4)GlcNAc(b1-3)GalNAc
# Summary of the method: as §1
# [4] = biological target: Fuc(a1-2)Gal(b1-4)GlcNAc(b1-3)[Fuc(a1-2)Gal(b1-4)GlcNAc(b1-6)]GalNAc
# Summary of the method: as §1
# [5] = biological target: Fuc(a1-2)Gal(b1-4)GlcNAc(b1-3)[Fuc(a1-3)[Gal(b1-4)]GlcNAc(b1-6)]Gal(b1-4)Glc
# Summary of the method: as §1
# [6] = biological target: Fuc(a1-2)Gal(b1-4)GlcNAc(b1-6)GalNAc
# Summary of the method: as §1
# [7] = biological target: Fuc(a1-2)Gal(b1-4)GlcNAc6S
# Summary of the method: as §1
# [8] = biological target: Fuc(a1-2)Gal(b1-4)[Fuc(a1-3)]GlcNAc
# Summary of the method: as §1
# [9] = biological target: Fuc(a1-2)Gal(b1-4)[Fuc(a1-3)]GlcNAc(b1-2)Man(a1-3)[Fuc(a1-2)Gal(b1-4)[Fuc(a1-3)]GlcNAc(b1-2)Man(a1-6)]Man(b1-4)GlcNAc(b1-4)[Fuc(a1-6)]GlcNAc
# Summary of the method: as §1
# [10] = biological target: Fuc(a1-2)Gal(b1-4)[Fuc(a1-3)]GlcNAc(b1-2)[Fuc(a1-2)Gal(b1-4)[Fuc(a1-3)]GlcNAc(b1-4)]Man(a1-3)[Fuc(a1-2)Gal(b1-4)[Fuc(a1-3)]GlcNAc(b1-2)Man(a1-6)]Man(b1-4)GlcNAc(b1-4)GlcNAc
# Summary of the method: as §1
# [11] = biological target: Fuc(a1-2)Gal(b1-4)[Fuc(a1-3)]GlcNAc(b1-3)Gal(b1-4)[Fuc(a1-3)]GlcNAc
# Summary of the method: as §1
# [12] = biological target: Fuc(a1-2)Gal(b1-4)[Fuc(a1-3)]GlcNAc(b1-3)Gal(b1-4)[Fuc(a1-3)]GlcNAc(b1-3)Gal(b1-4)[Fuc(a1-3)]GlcNAc
# Summary of the method: as §1
# [13] = biological target: Fuc(a1-2)Gal(b1-4)[Fuc(a1-3)]GlcNAc(b1-3)GalNAc
# Summary of the method: as §1
# [14] = biological target: Fuc(a1-2)Gal(b1-4)[Fuc(a1-3)]GlcNAc(b1-3)[Neu5Ac(a2-6)Gal(b1-4)GlcNAc(b1-6)]Gal(b1-4)Glc
# Summary of the method: as §1
# [15] = biological target: Fuc(a1-2)Gal3S(b1-4)GlcNAc
# Summary of the method: as §1
# [16] = biological target: Fuc(a1-2)Gal6S(b1-3)GlcNAc
# Summary of the method: as §1
# [17] = biological target: Fuc(a1-2)Gal6S(b1-3)GlcNAc6S
# Summary of the method: as §1
# Fuc(a1-2)Gal6S(b1-4)Glc = biological target: Fuc(a1-2)Gal6S(b1-4)Glc
# Summary of the method: as §1
# [18] = biological target: Fuc(a1-2)Gal6S(b1-4)Glc6S
# Summary of the method: as §1
# Fuc(a1-2)[Gal(a1-3)]Gal = biological target: Fuc(a1-2)[Gal(a1-3)]Gal
# Summary of the method: as §1
# [19] = biological target: Fuc(a1-2)[Gal(a1-3)]Gal(b1-3)GalNAc
# Summary of the method: as §1
# [20] = biological target: Fuc(a1-2)[Gal(a1-3)]Gal(b1-3)GalNAc(b1-3)Gal(a1-4)Gal(b1-4)Glc
# Summary of the method: as §1
# [21] = biological target: Fuc(a1-2)[Gal(a1-3)]Gal(b1-3)GlcNAc
# Summary of the method: as §1
# [22] = biological target: Fuc(a1-2)[Gal(a1-3)]Gal(b1-3)GlcNAc(b1-2)Man(a1-3)[Fuc(a1-2)[Gal(a1-3)]Gal(b1-3)GlcNAc(b1-2)Man(a1-6)]Man(b1-4)GlcNAc(b1-4)GlcNAc
# Summary of the method: as §1
# [23] = biological target: Fuc(a1-2)[Gal(a1-3)]Gal(b1-3)GlcNAc(b1-2)Man(a1-3)[Fuc(a1-2)[Gal(a1-3)]Gal(b1-3)GlcNAc(b1-2)Man(a1-6)]Man(b1-4)GlcNAc(b1-4)[Fuc(a1-6)]GlcNAc
# Summary of the method: as §1
# [24] = biological target: Fuc(a1-2)[Gal(a1-3)]Gal(b1-3)GlcNAc(b1-3)GalNAc
# Summary of the method: as §1
# [25] = biological target: Fuc(a1-2)[Gal(a1-3)]Gal(b1-3)GlcNAc(b1-6)GalNAc
# Summary of the method: as §1
# [26] = biological target: Fuc(a1-2)[Gal(a1-3)]Gal(b1-4)Glc
# Summary of the method: as §1
# [27] = biological target: Fuc(a1-2)[Gal(a1-3)]Gal(b1-4)GlcNAc
# Summary of the method: as §1
# [28] = biological target: Fuc(a1-2)[Gal(a1-3)]Gal(b1-4)GlcNAc(b1-2)Man
# Summary of the method: as §1
binder,measurement,setting,value
B1,glycan array binding signal (z-score),[1],0.804
same,glycan array binding signal (z-score),[2],0.157
same,glycan array binding signal (z-score),[3],0.327
same,glycan array binding signal (z-score),[4],-0.867
same,glycan array binding signal (z-score),[5],-1.07
same,glycan array binding signal (z-score),[6],-0.761
same,glycan array binding signal (z-score),[7],0.642
same,glycan array binding signal (z-score),[8],-0.1
same,glycan array binding signal (z-score),[9],-0.831
same,glycan array binding signal (z-score),[10],1.26
same,glycan array binding signal (z-score),[11],-1.05
same,glycan array binding signal (z-score),[12],-0.801
same,glycan array binding signal (z-score),[13],-0.219
same,glycan array binding signal (z-score),[14],-0.589
same,glycan array binding signal (z-score),[15],-0.093
same,glycan array binding signal (z-score),[16],0.005
same,glycan array binding signal (z-score),[17],0.258
same,glycan array binding signal (z-score),Fuc(a1-2)Gal6S(b1-4)Glc,-1.5
same,glycan array binding signal (z-score),[18],-0.907
same,glycan array binding signal (z-score),Fuc(a1-2)[Gal(a1-3)]Gal,-0.717
same,glycan array binding signal (z-score),[19],-0.045
same,glycan array binding signal (z-score),[20],-0.396
same,glycan array binding signal (z-score),[21],0.444
same,glycan array binding signal (z-score),[22],-0.073
same,glycan array binding signal (z-score),[23],0.605
same,glycan array binding signal (z-score),[24],-0.124
same,glycan array binding signal (z-score),[25],0.15
same,glycan array binding signal (z-score),[26],0.06
same,glycan array binding signal (z-score),[27],0.485
same,glycan array binding signal (z-score),[28],0.358

# Rewritten tab-delimited: entries from further up.
binder	measurement	setting	value
B1	glycan array binding signal (z-score)	[26]	0.06
same	glycan array binding signal (z-score)	[27]	0.485
